For two molecules, binding results are on record in publication PMC11222155.

No constants are given. Whether binding was seen depends on the method and setting. For some assays here: In cells and extracts the contact can be indirect. Some entries that bind do so weakly or less than the wild type. Sequences can lack the tags named with a protein.

The target of assay [1] is T1, GasA tagged N terminally with the N-terminal half of GFP (A. flagrans).
T1 sequence: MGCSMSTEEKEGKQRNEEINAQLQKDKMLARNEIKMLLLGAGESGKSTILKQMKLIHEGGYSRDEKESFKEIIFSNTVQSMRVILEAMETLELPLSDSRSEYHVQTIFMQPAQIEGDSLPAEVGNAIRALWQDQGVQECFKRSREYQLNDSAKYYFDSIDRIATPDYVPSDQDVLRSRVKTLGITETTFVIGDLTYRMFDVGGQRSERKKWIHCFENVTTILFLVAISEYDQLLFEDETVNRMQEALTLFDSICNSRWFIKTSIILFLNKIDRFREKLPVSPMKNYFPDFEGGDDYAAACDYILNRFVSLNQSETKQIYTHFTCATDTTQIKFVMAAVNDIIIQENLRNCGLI
As to the kind of experiment: split reporter; split GFP in A. flagrans hyphae; gprC-GFPC and GFPN-gasA each from its own promoter; hyphae induced with nematodes (uninduced hyphae and single-construct strains as controls); fluorescence microscopy.

Assay [2] addresses T2, GasA (yeast two-hybrid fusion) (A. flagrans).
T2 sequence: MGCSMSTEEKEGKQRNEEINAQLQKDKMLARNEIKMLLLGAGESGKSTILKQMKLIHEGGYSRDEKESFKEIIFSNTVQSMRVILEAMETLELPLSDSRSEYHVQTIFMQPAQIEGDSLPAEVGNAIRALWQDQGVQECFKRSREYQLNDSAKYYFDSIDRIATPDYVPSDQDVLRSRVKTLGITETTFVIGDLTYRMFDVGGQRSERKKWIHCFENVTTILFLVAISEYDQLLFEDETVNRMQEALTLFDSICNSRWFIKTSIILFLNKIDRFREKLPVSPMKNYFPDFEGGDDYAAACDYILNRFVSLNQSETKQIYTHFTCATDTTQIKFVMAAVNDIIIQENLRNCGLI
In words: two-hybrid; Matchmaker Gold system (Clontech); pGBKT7 and pGADT7; strains AH109 and Y187 mated; dilution series on SD-LW and SD-LWH agar plates for 3-5 days.

B1: GprC tagged at the C terminus with the C-terminal half of GFP (receptor, UniProt A0A437AGY2 1-538)
chain: MAFTTLSFTIAVLNLIGSLSSFFGSGFIVVTYLLLPIKRHFRHSLILNLAIADFINSSNNSTSGLWRLLKRREIPDSPGCVTNGFLGQLSVQATDTSILAIAIVTVWSLTRKTTICETLPRTTTALICATTWILPITTSFIALGMNRYGPVSGNWCWIKAEPSYFRYVMTHGWRFAFILSEIVMYTYLHFYIRKRFGAFLDASRCSSHTGRSTVRDVGTEFRNDSMAIRLDSVAIRNDSLAPAEEPQRSDSQMPFSITDEGDIRPIGARGQDLESGEAFVRTEVWISETYDDKTLPAHAVTTTISSGNNSLEQPNTDLRPETANTIESRRPKFSNPFAHRRADEDDLADVDVNDENERKIRQQNASRSRRVRRILLLNAYPAMYILLWIPGIINRLIEASGGKSSVMQIMQASTQFVGLANAITYGWNERVWRQLKDYIADRWGSDRKRSVEELAVQKVELENRLRVGLKGSKERLREIRDGLRSPNKKDDDEVPLDNRGQLMYINGTWQWSQTASINSQDGDADDREISRDPGPRRE
Regarding B1, in assay [1], the binding entry is listed as “binds”.

B2: full-length GprC (yeast two-hybrid fusion) (receptor, UniProt A0A437AGY2 1-538)
chain: MAFTTLSFTIAVLNLIGSLSSFFGSGFIVVTYLLLPIKRHFRHSLILNLAIADFINSSNNSTSGLWRLLKRREIPDSPGCVTNGFLGQLSVQATDTSILAIAIVTVWSLTRKTTICETLPRTTTALICATTWILPITTSFIALGMNRYGPVSGNWCWIKAEPSYFRYVMTHGWRFAFILSEIVMYTYLHFYIRKRFGAFLDASRCSSHTGRSTVRDVGTEFRNDSMAIRLDSVAIRNDSLAPAEEPQRSDSQMPFSITDEGDIRPIGARGQDLESGEAFVRTEVWISETYDDKTLPAHAVTTTISSGNNSLEQPNTDLRPETANTIESRRPKFSNPFAHRRADEDDLADVDVNDENERKIRQQNASRSRRVRRILLLNAYPAMYILLWIPGIINRLIEASGGKSSVMQIMQASTQFVGLANAITYGWNERVWRQLKDYIADRWGSDRKRSVEELAVQKVELENRLRVGLKGSKERLREIRDGLRSPNKKDDDEVPLDNRGQLMYINGTWQWSQTASINSQDGDADDREISRDPGPRRE
B2: the binding entry in assay [2] is reported as “binds”.
